Measured values as given in PubChem BioAssay AID1347423 (Functional Genomics Laboratory (NCATS/FGL), 2020).
Hit rate of the full screen: of about 52,000 sequences, about 210 (0.4%) were called active.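 How the source made its calls: active means gene whose silencing raises cell survival under the drug, median off-target-corrected z-score across its silencing RNAs 2 or more; inactive means the rest.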 The list shows a part of the results.

Experiment: Resistance to Poly (ADP-Ribose) Polymerase inhibitor: Gene Identification via Genome-wide siRNA Screen
Conditions: mouse BRCA2 R2336H ES cells, olaparib, CellTiter-Glo viability; stronger effect = higher value
Outline: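 Genome-wide siRNA screen (3 siRNAs/gene, 20 nM) in mouse ES cells carrying hypomorphic BRCA2 R2336H; olaparib 500 nM added 48 h post-transfection, CellTiter-Glo viability 72 h later. Normalized to plate-median negative control; MAD z-scores, gene median, seed-adjusted.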

| Sequence | z-score |
| --- | --- |
| GGACCAUAAUGGCAAUAAATT against 1700011H14Rik | inactive: -0.769 |
| CCAUUCUGAAUCUCUAAUCTT against Pigw | inactive: -0.0839 |
| GGCCAAAUAGCAUUUGCCATT against Olfr657 | inactive: 0.292 |
| GGUCAGAGUGCCUCUUGAATT against Slc7a5 | inactive: -0.666 |
| GCAUAACUCAUGAUCUCCUTT against Oit3 | inactive: 0.546 |
| GCACAGUAGUGAAAGUGAATT against Hspa14 | inactive: -0.0907 |
| GGACUUGUCUGGAUUUUGGTT against Mal2 | inactive: 0.301 |
| GGACGGUCUCAACUUUUCCTT against Icam2 | inactive: 1.14 |
| GCUUACUAAUGCGGAUUACTT against 5330438D12Rik | inactive: 1.26 |
| GGUGGAGAUUGUUUGUAAATT against AW125753 | inactive: 1.4 |
| CCCACCACAAGCUAAUACATT against Ubadc1 | inactive: -0.00448 |
| GGAAGAGGCUGAAUCAGCUTT against MGC37347 | inactive: -1.28 |
| GCAACCUGAGGAAUUCAAUTT against D330045A20Rik | inactive: 0.017 |
| CCUACAGACGGAUACCAGATT against 9930012K11Rik | inactive: -0.51 |
| GGUUUUUCGAGUUUUUUCUTT against Msx1 | inactive: -0.359 |
| GGUAGGACCCAAACAUGUATT against 9830147P19Rik | inactive: -1.02 |
| GGGCUUCUGCUUUUACUACTT against Ppp2cz | inactive: 0.734 |
| GGUGACUGUUCAGAUGGAGTT against 2700038I16Rik | inactive: -0.1 |
| GGAAAGAAUAUGAGAAUGCTT against Reck | inactive: 2.07 |
| GGUACUUGAAGACUUGGAGTT against Rasal1 | inactive: -0.224 |
| GGCAGAAAAUAAUUACUUGTT against Sh3d19 | inactive: 1.37 |
| CCAUUGUCACUCCUAGUGUTT against Olfr1361 | inactive: 0.761 |
| GGUGUGGCUGAUGUAUAAATT against Syt7 | inactive: 0.97 |
| GCACAAUCAUUCUUCUCAUTT against Frap1 | inactive: -0.713 |
| GGCAUUGAAGACAAGACCCTT against Papd1 | inactive: 0.981 |

Shown with bars between the fields: part of the list above.
Sequence | z-score
GCACAGUAGUGAAAGUGAATT against Hspa14 | inactive: -0.0907
GGACUUGUCUGGAUUUUGGTT against Mal2 | inactive: 0.301
GGACGGUCUCAACUUUUCCTT against Icam2 | inactive: 1.14

More entries.

| Sequence | z-score |
| --- | --- |
| GGGAAGUGCCUCCUAUACUTT against 3010027G13Rik | inactive: 0.0362 |
| GCUCCCACUUCACUUCUGUTT against Olfr965 | inactive: 0.428 |
| CCUUAAGACCGGAUUUUUUTT against Cyp4f14 | inactive: 0.367 |
| GGGAUGUGCAAUUAUAUCUTT against Muc6 | inactive: 1.32 |
| GGAUACCAAGAUUCCAAAUTT against Pik3r4 | inactive: -0.502 |
| CCCAAAGAGAAAUUUCUAGTT against Mfi2 | inactive: 0.576 |
| GGUGACAACACUUGUCAACTT against Catna2 | inactive: 0.0714 |
| CGGCUCUUCAAUAGAGCCUTT against Olfr123 | inactive: 0.399 |
| GGCUUUCCCAAGCUAAGAGTT against Maff | inactive: 0.556 |
| GGGCAACAACAAUGUCUUATT against Islr | inactive: -0.565 |
| CCAUGAAGUCCCAUGUUAUTT against Tpo | inactive: 0.161 |
| GGUCAAGACGGUCUACCGATT against Rab3d | inactive: -0.296 |
| CCCUCAAAGUCAUUUCAAATT against 4930463G05Rik | inactive: -0.615 |
| GUUAAGAUUUAGGCAUCAATT against Olfr805 | inactive: 0.745 |
| GGAGAUGCCUAGUAUGAGCTT against Onecut2 | inactive: 1.41 |
| GACCAGAAAUUUAAGUGCUTT against Wbscr18 | inactive: -0.348 |
| CCAUCUCAGAAAAGCUUGUTT against Il1rl1l | inactive: -0.756 |
| GGAUUAAACUGCAUAACAGTT against Ctsq | inactive: -0.464 |
| GUCAUCAUGGGUCCUGAGATT against V1ri9 | inactive: -1.83 |
| CCUAUUUGGUUCCUGAUGGTT against Gm1968 | inactive: -1.04 |
| GGCUUUCUUCUAGAAUGAGTT against Nptx1 | inactive: 0.868 |
| GGCUCCUGGCUUUAUCCUGTT against Olfr107 | inactive: -0.159 |
| GGGAAAUCUCUGAUUACAUTT against Eif2ak3 | inactive: 0.253 |
| GGGCUUAAAUCGGUUUGAATT against 2810006K23Rik | inactive: 0.741 |
| GGCCUCCAAUUUUCAAGUUTT against Pnliprp1 | inactive: 0.357 |
